Assay results reported in PubChem BioAssay AID330 (DTP/NCI, 2004).
The list is a part of this screen's results and no random one: it gathers tests that were run many times, whatever their T/C, doses with no T/C, and many T/C values between a quarter and a half above the control. Other doses and runs of a compound stand elsewhere. T/C: endpoint of the treated group in % of that of the vehicle group. Some entries give survivors of the animals treated and no T/C: the source files T/C as zero there, which appears to mark a toxic dose or a test without result, not a measured value. Some survivor counts are full or nearly so, which does not show that the dose was tolerated: the source hardly ever lists a survival T/C far under the control, and the zero likely stands for such cases as well. Counts of survivors are from the toxicity check (mostly the fifth day) where no day follows; animals may have died later. Schedule codes are those of the source, read here as Q, the interval in days (D) or hours (H), X, the number of doses. Where survival is the endpoint, this PubChem deposit counts one and a half times the control or more as active, and values a quarter to a half above the control carry no call in these data; other NCI protocols may use other cut-offs. Some entries were tested several times; their values stand side by side, smallest first. Some T/C values carry the count of animals alive at the toxicity check (mostly the fifth day); without a count, all were alive then.

Tested on: P388 leukemia ip, CD2F1 mice, survival T/C
Assay: NCI In Vivo Anticancer Drug Screen. Data for tumor model P388 Leukemia (intraperitoneal) in CD2F1 (CDF1) mice
Conditions: T/C endpoint: median survival time, higher T/C = longer survival
[1] = dose: 100.0 mg/kg/injection, schedule: Q01DX009 (ip), vehicle: saline with Tween-80

CC1=C(C)CC2C(=O)c3c(c(O)c4ccccc4c3Cl)C(=O)C2C1 (configuration not stated)
survivor count (dose: 100.0 mg/kg/injection, schedule: Q01DX001 (ip), vehicle: Klucel (hydroxypropylcellulose) (HPC)): 6 of 6
survivor count (dose: 200.0 mg/kg/injection, schedule: Q01DX001 (ip), vehicle: Klucel (hydroxypropylcellulose) (HPC)): 5 of 6
survivor count (dose: 400.0 mg/kg/injection, schedule: Q01DX001 (ip), vehicle: Klucel (hydroxypropylcellulose) (HPC)): 3 of 6

CCCCCCCCCCN(CCCCCCCCCC)C1CC(OC2CC(O)(C(C)=O)Cc3c(O)c4c(c(O)c32)C(=O)c2c(OC)cccc2C4=O)OC(C)C1O (configuration not stated)
survivor count (dose: 25.0 mg/kg/injection, schedule: Q01DX009 (ip), vehicle: distilled water + Tween-80): 1 of 3
survivor count (dose: 50.0 mg/kg/injection, schedule: Q01DX009 (ip), vehicle: distilled water + Tween-80): 0 of 3
T/C (dose: 150.0 mg/kg/injection, schedule: Q04DX003 (ip), vehicle: other): 140 % of control [5 of 6 alive]

CSc1cnnc2ccccc12
T/C (dose: 50.0 mg/kg/injection, schedule: Q01DX009 (ip), vehicle: Klucel (hydroxypropylcellulose) (HPC)): 128 % of control
survivor count (dose: 100.0 mg/kg/injection, schedule: Q01DX009 (ip), vehicle: Klucel (hydroxypropylcellulose) (HPC)): 3 of 6
survivor count (dose: 200.0 mg/kg/injection, schedule: Q01DX009 (ip), vehicle: Klucel (hydroxypropylcellulose) (HPC)): 0 of 6

CNC(=O)OCc1c(COC(=O)NC)c(-c2ccco2)n2c1CCC2
survivor count (dose: 60.0 mg/kg/injection, schedule: Q01DX005 (ip), vehicle: saline with Tween-80): 0 of 6
survivor count (dose: 120.0 mg/kg/injection, schedule: Q01DX005 (ip), vehicle: saline with Tween-80): 0 of 6
survivor count (dose: 240.0 mg/kg/injection, schedule: Q01DX005 (ip), vehicle: saline with Tween-80): 0 of 6

C=C(CN(C)C)C(=O)c1ccc(Oc2ccccc2)cc1
survivor count (dose: 7.5 mg/kg/injection, schedule: Q01DX005 (ip), vehicle: saline): 1 of 6
survivor count (dose: 15.0 mg/kg/injection, schedule: Q01DX005 (ip), vehicle: saline): 0 of 6
survivor count (dose: 30.0 mg/kg/injection, schedule: Q01DX005 (ip), vehicle: saline): 0 of 6
survivor count (dose: 60.0 mg/kg/injection, schedule: Q01DX005 (ip), vehicle: saline): 0 of 6
survivor count (dose: 120.0 mg/kg/injection, schedule: Q01DX005 (ip), vehicle: saline): 0 of 6
survivor count (dose: 240.0 mg/kg/injection, schedule: Q01DX005 (ip), vehicle: saline): 0 of 6

COc1ccc(NN=O)nc1Br
T/C (dose: 50.0 mg/kg/injection, schedule: Q01DX009 (ip), vehicle: saline): 125 [5 of 6 alive] and 137 % of control

COc1cc2c(cc1OC)-c1c3c(cc4c1[C@@H](C2)N(C)CC4)OCO3
T/C (dose: 100.0 mg/kg/injection, schedule: Q01DX009 (ip), vehicle: distilled water + Tween-80): 127 and 131 % of control
survivor count [1]: 4 of 6
survivor count (dose: 150.0 mg/kg/injection, schedule: Q01DX009 (ip), vehicle: distilled water + Tween-80): 3 of 5
survivor count (dose: 200.0 mg/kg/injection, schedule: Q01DX009 (ip), vehicle: distilled water + Tween-80): 0 of 6

COc1cc([C@@H]2c3cc4c(cc3[C@H](OC(C)=O)[C@H]3COC(=O)[C@@H]23)OCO4)cc(OC)c1OC
survivor count (dose: 44.0 mg/kg/injection, schedule: Q04DX003 (ip), vehicle: saline with Tween-80): 6 of 6
survivor count [1]: 5 of 6

O=C(OCc1ccccc1)ON1C(=O)C2C3C=CC(C3)C2C1=O (configuration not stated)
survivor count (dose: 200.0 mg/kg/injection, schedule: Q01DX005 (ip), vehicle: Klucel (hydroxypropylcellulose) (HPC)): 3 of 5

CC(C)N(C(=O)c1ccc(Cl)c(Cl)c1)C(C)C
T/C (dose: 50.0 mg/kg/injection, schedule: Q04DX003 (ip), vehicle: saline with Tween-80): 133 % of control

COC1/C=C\OC2(C)Oc3c(C)c(O)c4c(O)c(c(/C=N/N(Cc5ccccc5)C56CC7CC(CC(C7)C5)C6)c(O)c4c3C2=O)NC(=O)/C(C)=C\C=C\C(C)C(O)C(C)C(O)C(C)C(OC(C)=O)C1C (configuration not stated)
survivor count (dose: 200.0 mg/kg/injection, schedule: Q01DX009 (ip), vehicle: saline with Tween-80): 6 of 6

Nc1nc2nc[nH]c(=O)c2[nH]1
survivor count (dose: 100.0 mg/kg/injection, schedule: Q01DX005 (ip), vehicle: saline with Tween-80): 0 of 6

CC(C)(C)C(=O)CC(=[OH+])c1ccccc1[PH+](c1ccccc1)c1ccccc1.CC(C)(C)C(=O)CC(=[OH+])c1ccccc1[PH+](c1ccccc1)c1ccccc1.O=C(O)c1ccccc1.[Cu].[Cu]
survivor count (dose: 100.0 mg/kg/injection, schedule: Q01DX001 (ip), vehicle: saline with Tween-80): 6 of 6
survivor count (dose: 200.0 mg/kg/injection, schedule: Q01DX001 (ip), vehicle: saline with Tween-80): 6 of 6
survivor count (dose: 400.0 mg/kg/injection, schedule: Q01DX001 (ip), vehicle: saline with Tween-80): 6 of 6
